# According to PubChem BioAssay AID1508600 (Functional Genomics Laboratory (NCATS/FGL), 2020):
# Among all 53,000 sequences or so, about 3,700 (7%) were called active.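 How the source made its calls: active means gene knockdowns whose robust z-score for IL-1 alpha signal is at least 2 or at most -2, so actives lie on both sides; inactive means the rest.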 The list shows a part of the results.
# Assay: Components of the Cytosolic LPS Sensing Pathway: Gene Identification via Genome-wide siRNA Screen;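 further: robust z of the log signal after scaling to non-targeting control siRNA wells of the plate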
# Details: RAW264.7 macrophages, IL-1a HTRF, actives lie on both sides, screened at 100 nM (by protocol), cells primed 5 h with Pam3CSK4 first
# Method in brief: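 Read-out: IL-1a HTRF on supernatant, divided by plate negative-control median ×100, log-transformed and converted to robust z-score. Cells were RAW264.7 given 100 nM siRNA, Pam3CSK4-primed 5 hours, then LipidA-transfected 24 hour.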
row,Sequence,z-score
1,GGAAAUACAGCUCGGAGCATT against Eaf2,inactive: -0.124
2,CCCAAUGGCACUCUAUAUCTT against Hepacam,inactive: -1.32
3,GGACCAAAUCCUCUGAUUCTT against Bud13,active: 2.74
4,GUGGAAUUCAUGGAUGACATT against Rps28,inactive: -0.765
5,GCAGAGCUAGCUGAAUUGCTT against Urb2,inactive: -0.156
6,GGUUAACACUAAAUGAAGATT against Cip2a,inactive: 0.153
7,GGAUUCGCCUUUUCUACCGTT against Hoxb2,inactive: 0.929
8,GCCCUCAAUAAAUGCCAUCTT against Pcsk1n,inactive: 1.23
9,GCGAUCUACGCUUUCAAAGTT against Dennd2a,inactive: 1.13
10,GGGAAUCUGAUGAAGAUGGTT against Grin3b,inactive: -1.56
11,CCUACUGUGCAUAGGUCUCTT against Tspan4,inactive: 1.52
12,CCGAAUCGUCCUAAACCAATT against Cyp11a1,inactive: 0.284
13,GGUCAUUCUAGGCUACAAUTT against Crx,inactive: -0.083
14,GGUCAACAGAAUGAAAAAUTT against Runx1t1,inactive: -0.211
15,CGAUUGCUCUUAACCCUUGTT against Zfp597,inactive: -0.233
16,CCAGGGAAUUAAAUUUACATT against Carmil1,inactive: -0.935
17,GGAAUCAUUCACAGCAUGUTT against Arhgap15,inactive: -0.0469
18,GGAUCUUACAGUCAGAGAGTT against Cdh4,inactive: 0.164
19,GGGUAUGUAUUACCUCGAGTT against Erbb3,inactive: -1.66
20,GCCGUUGAAAAGGUUGGAUTT against Anp32b,inactive: -0.733
21,CCUGGAAUCACACAUACCUTT against Abr,inactive: -0.921
22,CCUUCUAUGCCUCCUACAATT against Wdr93,inactive: 0.612

row,Sequence,z-score
1,GGAAAAAUGACCACAUACUTT against Gucy1b2,inactive: 0.00512
2,GCUACACCGAGGACAGUUUTT against Nid2,inactive: 1.72
3,CCUGUGAUGUGAUCAUUAATT against Pigr,inactive: 1.37
4,CGACAUGUCAAAACUCACGTT against Zfp791,inactive: 1.22
5,GGAUUCCAAUUUUAUUCCATT against Brca1,inactive: 1.57
6,GGCACAGAAAGAGAAAUACTT against Ivd,inactive: 0.00782
7,CCUAGAUAGGCUUGUAGCCTT against Mylpf,inactive: 1.61
8,GGUGAAGAGUAAGAUCUUGTT against Gga1,inactive: -0.0508
9,GGUGGAAAUUUUCAGAGAATT against 4933411G06Rik,inactive: -0.556
10,CCACGUGAAGGAGAGAUGATT against Mob2,inactive: 1.39
11,GGACGGUCAUGUCUAUGAATT against Pglyrp1,inactive: -1.01
12,GGUUUUAAUUGUUCAGACGTT against Lrrtm3,inactive: 0.35
13,GCACUUUGGCAUAUUUUCATT against Slc6a15,inactive: -0.391
14,GCAUCUGUAAAUCUUUAGCTT against Gpr85,inactive: 0.866
15,CGAGAUGAAUUUCUAGUAGTT against Tubgcp3,inactive: 1.47
16,AUGAGGAGACUCUUUGCUATT against Olfr1317,inactive: -0.224
17,GGAUCUCCUUUUUUUUCAATT against Gabrr1,inactive: 0.0887
18,GCAUUUUUCGUUAGGAAAATT against Esco2,active: 3.13
19,GGUCUGUAUGAAGACAUUATT against Pdss1,inactive: -1.16
20,CCCGUCACAUCUCAUUCCATT against Tpmt,inactive: -0.175
21,GCCAAGCAUUAAGUGAUAATT against Setmar,active: 2.7
22,GCCAUUACUUAACUCAUAATT against Zfp943,inactive: 0.3

row,Sequence,z-score
1,GGGACCACAAGUUUAGAACTT against Cep57l1,inactive: 0.434
2,GCUGAGACUAAACAUUGUATT against 2610008E11Rik,inactive: -0.717
3,GUAGAAACUUCUCGUUCACTT against Tcl1b3,inactive: 0.675
4,CGCACACACUGAACUUUAATT against Slco1a1,inactive: -0.0612
5,GGUGAAGGUGAAACGAUAUTT against Mfap1a,inactive: 0.291
6,CCUCUCCUUCUUAGACAUGTT against Olfr724,inactive: 0.654
7,GCCAUCGUGCGCAUGAUUUTT against Gstz1,inactive: 0.883
8,GCUAUCACUUUUCAUUAGATT against G0s2,inactive: -0.902
9,CCUACCAGUUCCUAUUUAGTT against Alas2,inactive: 0.452
10,GGAUGGUGUUGUGUUUAAATT against Chst2,inactive: 0.962
11,CCUUCGAAUCUGAAACCUUTT against Slc27a3,inactive: -0.973
12,GGAAAUGGUAAUUUUCAGUTT against Slc25a36,inactive: -0.242
13,GGAUUUCUACAGGGUGUAUTT against Trim8,inactive: -1.19
14,GCCGUACUUUCUGAGAUUATT against Shq1,inactive: 0.0585
15,GGAGCUGAAGAUCAAGGAGTT against Pkn3,inactive: -0.849
16,GGGAAAGAAGCAAAACUUUTT against Fyttd1,inactive: -0.199
17,GGAGACUCUCACCUAUCAUTT against Doc2g,inactive: -0.458
18,GGUACAUGCUCAAGUUAUATT against Bmp15,inactive: -0.963
19,GGAUCUGACUGAAGAUCACTT against Asgr1,inactive: 1.85
20,GGAAGAGGACAACCAGCUCTT against Cd82,inactive: 0.59
21,CCCUGAAUACUCUGAGUGGTT against Ucn,inactive: 0.0905
22,GGCCAUUCAGAAGAUGCAGTT against Snapc2,inactive: -0.852

# Single entries from above.
# Value of GGAUUUCUACAGGGUGUAUTT against Trim8 under z-score: inactive: -1.19
# Value of GGAUCUCCUUUUUUUUCAATT against Gabrr1 under z-score: inactive: 0.0887
# Value of GGACGGUCAUGUCUAUGAATT against Pglyrp1 under z-score: inactive: -1.01

# (further entries)

row,Sequence,z-score
1,GGAGGAGUAUGAUGAAUAUTT against Anp32a,inactive: 1.37
2,GGAUGUUCAAGCGCAGAGATT against Gtf3a,inactive: -0.202
3,GGCUGAAGACAAACAAAAGTT against Tm9sf2,inactive: -1.28
4,GCCAGUUUUGGUAUCCCGUTT against Lpcat2,inactive: -1.2
5,GGCCAGGAAAUAUGAAAUATT against Phtf1,inactive: -0.352
6,GCUUCGAUACCUUCAAACCTT against Stom,active: -3.7
7,CCAUCUUCAACGAAACCUATT against Erich3,inactive: -0.972
8,GGAAGAGCCUGAGAAAAGCTT against Perp,inactive: -1.34
9,GGUUAAGUCUUUAAAGAAGTT against Cilk1,inactive: 0.796
10,GGGCCAUUACAGAUGUGUUTT against Ly96,inactive: 0.211
11,GGUAGAGCAACUGUUUGCGTT against Myl7,inactive: 1.88
12,GGAACUCCAGCUUUUGGUCTT against Sox13,active: 2.51
13,GGUCGUGUACUCGUUCAGUTT against Pcdh10,active: 2.04
14,GGCAUUGUUUUCAUUGUGGTT against Cldn7,inactive: -0.0872
15,CGAAAUCAAGUUUACACUCTT against Mia2,inactive: 1.06
16,GGAUAAGGACAAUCAACUATT against Stab2,inactive: 0.806
17,GGGAGGAGAGGACAAAUUATT against Ywhae,inactive: 1.66
18,GGACACCUUACAUUAUGAATT against Rasgrf1,inactive: -0.796
19,CUACUCACAGUUUUAUUCATT against Tas2r140,inactive: -0.69
20,GGUGCUAUUCUUUCUUGUCTT against Slc12a3,inactive: -1.14
21,GGAACGAACUAAGAAUGGATT against Mapk8,inactive: 1.38
22,GGACGAUAAAUUCACUGUUTT against Inpp5d,inactive: -1.11

# Shown with tabs: entries from further up.
row	Sequence	z-score
3	GGCUGAAGACAAACAAAAGTT against Tm9sf2	inactive: -1.28
4	GCCAGUUUUGGUAUCCCGUTT against Lpcat2	inactive: -1.2
5	GGCCAGGAAAUAUGAAAUATT against Phtf1	inactive: -0.352
6	GCUUCGAUACCUUCAAACCTT against Stom	active: -3.7
7	CCAUCUUCAACGAAACCUATT against Erich3	inactive: -0.972
8	GGAAGAGCCUGAGAAAAGCTT against Perp	inactive: -1.34

# (cont.)

row,Sequence,z-score
1,CCAUAUCAGUAUUUAGAACTT against Syt9,inactive: 0.0976
2,CCGAGUAUGAGAAAUAUGATT against Ext1,inactive: -1.11
3,GGAUGUUAGUCCAUUUGGCTT against Gpc5,inactive: -0.195
4,CCUCAUGUCACUUUAACAUTT against Ccl7,inactive: -0.167
5,GCUACAGCAACAUAACAUGTT against Magi2,inactive: 0.792
6,CCAUGUGACAAAGCCUACCTT against Fam131b,inactive: 0.845
7,GCAGGGACCGUCUAUAACUTT against Ptprb,inactive: -1.12
8,GGCUUUCAUUCUGCAGCUATT against Olfr1089,active: -2.13
9,GGGAUUCAAGAAGUCCUGUTT against Elf2,inactive: 0.0178
10,GCAGGUUCAGGCAGUAAUUTT against Kpna4,active: 3.78
11,GCCGACGAGUAUACUAGACTT against Tenm3,inactive: 1.52
12,GCAGAAAAGGCGAGUUUAUTT against Phf19,inactive: -1.04
13,GCUACAAAGCGAUGUUUCATT against Pola2,inactive: 1.86
14,CGACGUGAGUUAAUGCUGCTT against Pif1,inactive: 0.0992
15,AUGGCUAUUUUGAAACCUCTT against H2-M10.3,inactive: -0.359
16,GGUGUCCUCUUUGUUCAUGTT against Sgce,active: 2.94
17,GCGAAAUCUUUGUCACUAATT against Sertad4,inactive: -0.201
18,GCCGAAGUGACAAUGUCUCTT against Tbc1d14,inactive: 0.449
19,GGUGAUUUUGACCAGUUCUTT against Cyp4v3,inactive: -0.53
